These are yes or no findings as the source states them, for the method shown. Some results given as binding are weak or reduced against the parent protein; the word gives no strength. For some assays here: Tags and fused reporters may be left off the sequences shown.
Assays:
[1] = molecular target: T1, TACI-Fc (R&D system, 174-TC) (human) (UniProt O14836); test: ELISA on 100 ng coated TACI-Fc, single antibody level (concentration not given), anti-human Fab HRP, absorbance 450 nm
T1 sequence (looked up): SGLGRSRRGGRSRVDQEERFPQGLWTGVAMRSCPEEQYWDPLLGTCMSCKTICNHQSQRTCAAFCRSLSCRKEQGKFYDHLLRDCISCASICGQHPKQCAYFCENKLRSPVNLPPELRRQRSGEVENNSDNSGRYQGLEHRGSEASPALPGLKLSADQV

The chains behind the UniProt entries cited, without tags or fusion partners. Where a name states a change or a piece, a line headed by the entry shows the natural chain unless it says otherwise.
UniProt Q02223: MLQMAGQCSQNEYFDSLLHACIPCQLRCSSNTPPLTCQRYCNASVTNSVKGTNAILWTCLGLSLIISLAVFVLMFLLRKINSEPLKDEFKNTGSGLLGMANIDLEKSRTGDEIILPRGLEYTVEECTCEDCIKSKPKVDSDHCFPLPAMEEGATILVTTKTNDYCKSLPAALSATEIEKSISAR

[2] = molecular target: T1, TACI-Fc (R&D system, 174-TC) (human); test: ELISA, 100 ng coated per well
[3] = molecular target: T2, BAFF-receptors (R&D system, 1162-BR) (human) (UniProt Q96RJ3); test: ELISA, 100 ng coated per well
T2 sequence (looked up): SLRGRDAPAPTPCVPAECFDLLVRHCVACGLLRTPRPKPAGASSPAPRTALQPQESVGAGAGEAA

[4] = molecular target: T2, BAFF-receptors (R&D system, 1162-BR) (human); test: ELISA on 100 ng coated BAFF-receptor, single antibody level (concentration not given), anti-human Fab HRP, absorbance 450 nm
[5] = molecular target: recombinant human BCMA (ELISA antigen, construct not specified) (human) (UniProt Q02223); test: ELISA, coated recombinant antigen, IgG titrated
[6] = molecular target: recombinant human BCMA (ELISA antigen, construct not specified) (human) (UniProt Q02223); test: ELISA on coated recombinant human BCMA, antibody titrated, HRP anti-Fab detection, absorbance 450 nm
[7] = molecular target: recombinant human BCMA (ELISA antigen, construct not specified) (human) (UniProt Q02223); test: ELISA on 100 ng coated human BCMA, antibody titrated, anti-human Fab HRP, absorbance 450 nm
[8] = molecular target: recombinant human BCMA (ELISA antigen, construct not specified) (human) (UniProt Q02223); test: ELISA, 100 ng coated antigen
[9] = molecular target: human monomeric BCMA antigen (human) (UniProt Q02223); test: SPR (Biacore T200), antibody captured on protein A chip
[10] = molecular target: recombinant human BCMA (ELISA antigen, construct not specified) (human) (UniProt Q02223); test: ELISA on recombinant BCMA
[11] = molecular target: human monomeric BCMA antigen (human) (UniProt Q02223); test: SPR (Biacore T200)

B1: anti-BCMA IgG antibody B58 (antibody, V domains shown)
VH: EVQLLESGGGLVQPGGSLRLSCAASGFTFSNYDMSWVRQAPGKGLEWVSWIYPSDSSIYYADSVKGRFTISRDNSKNTLYLQMNSLRAEDTAVYYCARGPFANKYRQFDYWGQGTLVTVSS
VL: QSVLTQPPSASGTPGQRVTISCSGSSSNIGSNSVSWYQQLPGTAPKLLIYADSKRPSGVPDRFSGSKSGTSASLAISGLRSEDEADYYCGSWDYSLSGYVFGGGTKLTVL
For B1, the binding [1] was “no binding”, the binding [2] was “no binding” and the binding [3] was “no binding”. For the same binder, the binding [4] was “no binding”, the binding [5] was “binds” and the binding [6] was “binds”. For the same binder, the binding [7] was “binds” and the binding [8] was “binds”.

B2: anti-BCMA IgG antibody 5B5 (antibody, V domains shown)
VH: EVQLLESGGGLVQPGGSLRLSCAASGFTFSGHYWSWVRQAPGKGLEWVSTVSGSGGDTFYADSVKGRFTISRDNSKNTLYLQMNSLRAEDTAVYYCARGHSVMDVWGQGTLVTVSS
VL: EIVLTQSPGTLSLSPGERATLSCRASQGIDSYVAWYQQKPGQAPRLLIYDASLRATGIPDRFSGSGSGTDFTLTISRLEPEDFAVYYCQQYNSWPITFGQGTKLEIKR
B2 was tested, and the binding [1] was “no binding”, the binding [2] was “no binding” and the binding [3] was “no binding”. The binding [4] was “no binding”, the binding [5] was “binds” and the binding [6] was “binds”. The binding [7] was “binds” and the binding [8] was “binds”.

B3: anti-BCMA IgG antibody 5A6 (antibody, V domains shown)
VH: EVQLLESGGGLVQPGGSLRLSCAASGFTFSNYGVHWVRQAPGKGLEWVSYISYSGGTYYNPSLKSRFTISRDNSKNTLYLQMNSLRAEDTAVYYCARDSDDFGFDYWGQGTLVTVSS
VL: QSVLTQPPSASGTPGQRVTISCQGDSLRSYYVNWYQQLPGTAPKLLIYDHSKRPTGVPDRFSGSKSGTSASLAISGLRSEDEADYYCQSYDSSTVVFGGGTKLTVLG
With B3 the binding [1] was “no binding”, the binding [2] was “no binding” and the binding [3] was “no binding”. The binding [4] was “no binding”, the binding [5] was “binds” and the binding [6] was “binds”. The binding [7] was “binds” and the binding [8] was “binds”.

B4: anti-BCMA IgG antibody 5D5 (antibody, V domains shown)
VH: EVQLLESGGGLVQPGGSLRLSCAASGFTFSDYGLSWVRQAPGKGLEWVSLIDSSGSSTFYADSVKGRFTISRDNSKNTLYLQMNSLRAEDTAVYYCAKEHGLFDSWGQGTLVTVSS
VL: EIVLTQSPGTLSLSPGERATLSCKASQDIDDDINWYQQKPGQAPRLLIYDASLRATGIPDRFSGSGSGTDFTLTISRLEPEDFAVYYCQQSLRTPITFGQGTKLEIKR
In the case of B4, the binding [1] is reported as “no binding”, the binding [2] is reported as “no binding” and the binding [3] is reported as “no binding”. For the same binder, the binding [4] was “no binding”, the binding [5] was “binds” and the binding [6] was “binds”. For the same binder, the binding [7] was “binds” and the binding [8] was “binds”.

B5: mutant antibody 5A6 LM6 (antibody, V domains shown)
VH: EVQLLESGGGLVQPGGSLRLSCAASGFTFSNYGVHWVRQAPGKGLEWVSYISYSGGTYYNPSLKSRFTISRDNSKNTLYLQMNSLRAEDTAVYYCARDSDDFGFDYWGQGTLVTVSS
VL: QSVLTQPPSASGTPGQRVTISCQGESLRSYYVNWYQQLPGTAPKLLIYDHSKRPTGVPDRFSGSKSGTSASLAISGLRSEDEADYYCQSYDASTVVFGGGTKLTVLG
With B5 the binding [9] was “binds”, the binding [10] was “binds” and the binding [11] was “binds”.

B6: mutant antibody 5D5 LM4 (antibody, V domains shown)
VH: EVQLLESGGGLVQPGGSLRLSCAASGFTFSDYGLSWVRQAPGKGLEWVSLIDSSGSSTFYADSVKGRFTISRDNSKNTLYLQMNSLRAEDTAVYYCAKEHGLFDSWGQGTLVTVSS
VL: EIVLTQSPGTLSLSPGERATLSCKASQDIDDAINWYQQKPGQAPRLLIYDASLRATGIPDRFSGSGSGTDFTLTISRLEPEDFAVYYCQQSLRTPITFGQGTKLEIKR
With B6 the binding [9] was “binds”, the binding [10] was “binds” and the binding [11] was “binds”.

Source: patent US20210284749A1
